The other results are listed elsewhere or left out.

This experiment has as its target T1, OsSMF1 (Oryza sativa, UniProt Q6ZLB0 1-436).
T1 sequence: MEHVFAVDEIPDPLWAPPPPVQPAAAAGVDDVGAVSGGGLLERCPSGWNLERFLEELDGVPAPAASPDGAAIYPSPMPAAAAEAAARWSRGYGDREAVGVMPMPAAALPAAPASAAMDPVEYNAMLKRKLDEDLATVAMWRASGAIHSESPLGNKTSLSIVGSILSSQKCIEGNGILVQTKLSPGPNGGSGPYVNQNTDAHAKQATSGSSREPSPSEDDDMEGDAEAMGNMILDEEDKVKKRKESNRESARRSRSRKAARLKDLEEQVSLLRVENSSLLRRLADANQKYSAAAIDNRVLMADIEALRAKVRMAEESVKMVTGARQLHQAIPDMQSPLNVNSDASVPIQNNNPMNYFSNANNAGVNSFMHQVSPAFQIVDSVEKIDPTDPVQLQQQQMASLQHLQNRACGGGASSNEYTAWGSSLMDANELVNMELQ
In words: protein-binding microarray (RPBM); PBS, 2% BSA, 51.3 ng/ul salmon testes DNA, 50 uM zinc acetate, 200 nM TF, 25 C, 1 h; high values mean tight binding. To be noted: protein: recombinant; tags: N-terminal polyhistidine and DsRed monomer fusion (pET32a); chain copies: 2; label: CyDye5-dUTP incorporated in the synthesized complementary strand; 3' TTTTT single-stranded linker to array surface; dsDNA, one strand shown. Summed up: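 Ni–NTA purification followed expression in E. coli BL21-CodonPlus of transcription factors fused N-terminally to a polyhistidine tag and DsRed. At 200 nM in PBS with 2% BSA, salmon testes DNA and 50 µM zinc acetate, the protein was incubated for 1 h at 25 °C with a custom Agilent array that had been primer-extended with Cy5-dUTP and blocked with 2% BSA. After washing, the array was read on an Axon 4000B scanner. The binding signal is per-feature fluorescence intensity in arbitrary units.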
Take “TTAGGCCACGACAGCAAATCTTGTTTCTTTCCATGCCCACCGGAGTCACCTAGTGCAG”: the binding signal is 6740 fluorescence intensity (a.u.).

Consider “TGAAATTAGAGTGCCTTGTAACAAATTTAATTTGCCTAAACGGAGTCACCTAGTGCAG”, for which the binding signal was 4070 fluorescence intensity (a.u.).

Take “GAGGGAGTAATAGCTTTCTCATGTGCGTCAGCTTAATTTTCGGAGTCACCTAGTGCAG”: the binding signal was 4380 fluorescence intensity (a.u.).

As to “TTGCTTGGTTTCTGCCACTTCTCATGCAGTGACTTGTACTCGGAGTCACCTAGTGCAG”, the binding signal is 3970 fluorescence intensity (a.u.).

“CTGTGCCTTGGCGGTTCGCTCTGGAGTCACATATAATGCCCGGAGTCACCTAGTGCAG”: the binding signal was 3220 fluorescence intensity (a.u.).

For the sequence “ACGTGATAAAGTCAGTGGTAAATTGTAGAAGTGTGACAAACGGAGTCACCTAGTGCAG”, the binding signal is 35800 fluorescence intensity (a.u.).

For “GGGGCCCACGGCGCGACCTGCCACGTGTCGCGCCTCGATTCGGAGTCACCTAGTGCAG”, the binding signal is 15900 fluorescence intensity (a.u.).

In the case of “ACGCTAGCCACAGTGCACGGGTGGCGGCGGAGGAGGTGGGCGGAGTCACCTAGTGCAG”, the binding signal is 25100 fluorescence intensity (a.u.).

Regarding “CAGCTTAGCCTTAGCCCAACGATGACGACGAGATATCAGACGGAGTCACCTAGTGCAG”, the binding signal was 3550 fluorescence intensity (a.u.).

On to “GGATCCATCCGCGCCCGCCGCTGACGCTGCCACCGCCGCCCGGAGTCACCTAGTGCAG”, for which the binding signal was 6640 fluorescence intensity (a.u.).

For the sequence “ATGGCCTCATCCGCCGCCACGCTGTCGTAGCCCTCTCGCGCGGAGTCACCTAGTGCAG”, the binding signal was 5980 fluorescence intensity (a.u.).

Turning to “GTCGTCCCGCCGCCGATGACGTCCGGTGGCGGGCCCTACTCGGAGTCACCTAGTGCAG”, the binding signal was 3490 fluorescence intensity (a.u.).

As for “CGACGCGCGAAGAACCCCGCACCACCACCACCCCACGCGGCGGAGTCACCTAGTGCAG”, the binding signal is 3210 fluorescence intensity (a.u.).

As to “TTCATTAGTTCTTTGCAAACTTAGCGTCATGTTCATTAGACGGAGTCACCTAGTGCAG”, the binding signal was 3420 fluorescence intensity (a.u.).

For “TGTACCACACTTCATATATCATGAGTCACTTCATGTCTGGCGGAGTCACCTAGTGCAG”, the binding signal is 8000 fluorescence intensity (a.u.).

On to “CCTTGTCGCCGCCACACAAAGTCGCTGCCGCCATCGTGTACGGAGTCACCTAGTGCAG”, for which the binding signal was 3150 fluorescence intensity (a.u.).

On to “GGTATTAATTGTCGAGCCATGCATCCACGTGCACAGGGTACGGAGTCACCTAGTGCAG”, for which the binding signal was 5860 fluorescence intensity (a.u.).

Take “GGATGCGGTGACGGCGGAGTGACAGTGTCTGAGGTGAGGACGGAGTCACCTAGTGCAG”: the binding signal was 3440 fluorescence intensity (a.u.).

Turning to “ATCGTCGTCGTCATCGGTATCCTTCATTCTGACATGCATTCGGAGTCACCTAGTGCAG”, the binding signal was 4520 fluorescence intensity (a.u.).

In the case of “AGATTCTTCGCTGACCTCATCATTCGCCTCGCCGCCGCCCCGGAGTCACCTAGTGCAG”, the binding signal was 6820 fluorescence intensity (a.u.).

In the case of “AGTGATCACTTGCTTCAAAGGGTGCAGCAGTGTAGGAGAGCGGAGTCACCTAGTGCAG”, the binding signal is 18900 fluorescence intensity (a.u.).

For the sequence “CGTGGGAAGAAGACAGTCAAAGAAGCCACGTCAGGCAAAACGGAGTCACCTAGTGCAG”, the binding signal was 14800 fluorescence intensity (a.u.).

As to “CAAAATTACTCCAGCAGGAAGCATGAGGTTTGCCGTTTTGCGGAGTCACCTAGTGCAG”, the binding signal is 17900 fluorescence intensity (a.u.).

For the sequence “TAATACCTGCAGCTGTGTGTAGTATATATAGAGCCGTTTGCGGAGTCACCTAGTGCAG”, the binding signal is 3780 fluorescence intensity (a.u.).

In the case of “GCACGCCCGAGGCGGGCCCCACCTGTCAGCGACCCCGCGACGGAGTCACCTAGTGCAG”, the binding signal is 4620 fluorescence intensity (a.u.).

As to “TCGTTTACCCTTATATTTCGAAGCTGTAGCCTCGTCAAGTCGGAGTCACCTAGTGCAG”, the binding signal is 3430 fluorescence intensity (a.u.).

Consider “AATCATGTTGGCACAACTTTGATTTAACTGATAGAACAAACGGAGTCACCTAGTGCAG”, for which the binding signal was 12200 fluorescence intensity (a.u.).

Take “TGATTGTTTAACCAAAATATATGCAATTGACTAAGCAAAACGGAGTCACCTAGTGCAG”: the binding signal was 3220 fluorescence intensity (a.u.).

Take “GAACGACCCGAACTTATGACTCATTTATGGTTTGTTTCTCCGGAGTCACCTAGTGCAG”: the binding signal was 8680 fluorescence intensity (a.u.).

For the sequence “CCCCACGTCGGCCTCTTCTGACGTATAGTGCGTAGTAGCTCGGAGTCACCTAGTGCAG”, the binding signal was 5310 fluorescence intensity (a.u.).

With “CGAGCATGGCCCACACGTCAGCCACCTACCTGCCTAGAGGCGGAGTCACCTAGTGCAG”, the binding signal is 12300 fluorescence intensity (a.u.).

“ATATATATATATATATATATATGGAATACATCATATCCAACGGAGTCACCTAGTGCAG”: the binding signal was 3400 fluorescence intensity (a.u.).

In the case of “AACATGGCGTCTACGTGGCAGTATTGACTAGGTCTTCGTCCGGAGTCACCTAGTGCAG”, the binding signal was 17000 fluorescence intensity (a.u.).

Consider “GTTGAGTCGGGTGTCCCAGAGACACGTTTGTTAGGCAGCGCGGAGTCACCTAGTGCAG”, for which the binding signal was 4220 fluorescence intensity (a.u.).

As for “AATATGGATTATTACCAAGAATTTATCCGTTGTTTTGCTACGGAGTCACCTAGTGCAG”, the binding signal was 40700 fluorescence intensity (a.u.).

For “AGCAGATCACCTCAGCTTCAACTGCCCTTTTGCTATCAGTCGGAGTCACCTAGTGCAG”, the binding signal is 3250 fluorescence intensity (a.u.).

For “CTCTCCTCTCCTCGCGAGTTTCCTCATCAAAATCGCCTTCCGGAGTCACCTAGTGCAG”, the binding signal is 3140 fluorescence intensity (a.u.).

Regarding “GTTGCGACAACAATCTGACTAAGACAGAAGCTGTAGCCTTCGGAGTCACCTAGTGCAG”, the binding signal is 3720 fluorescence intensity (a.u.).

As to “GTGGGTCCCACGCTGACTCAGCCGCCACGTAGACTAAAACCGGAGTCACCTAGTGCAG”, the binding signal was 23600 fluorescence intensity (a.u.).

For “ACGCGTCTTCCTGCCCATCCCCGGCGGCGGCGGCGGCGTCCGGAGTCACCTAGTGCAG”, the binding signal is 25600 fluorescence intensity (a.u.).

For the sequence “GTATATTCTCAGCTTCAATATTATTAACGTTGTCATATTGCGGAGTCACCTAGTGCAG”, the binding signal is 3450 fluorescence intensity (a.u.).

For the sequence “TTCCGCTCTCGCTAGCTATACGCCTATACCCCACCCGTCGCGGAGTCACCTAGTGCAG”, the binding signal is 30800 fluorescence intensity (a.u.).
